In PubChem BioAssay AID1439 (NMMLSC, 2008):
The whole screen tested about 220,000 compounds, of which about 770 (0.35%) were called active. The inconclusive results got no clear call from the source; some entries with a clear call stand among them for comparison. Cut-off read from the data, not from the text of the source: active = binding response below about 49% or above about 150%; inconclusive = no clear call, values can overlap the other calls; inactive = in between.

Sequences of proteins named here, by UniProt entry; tags and fusion partners are left off.
UniProt P09471, whole entry, looked up: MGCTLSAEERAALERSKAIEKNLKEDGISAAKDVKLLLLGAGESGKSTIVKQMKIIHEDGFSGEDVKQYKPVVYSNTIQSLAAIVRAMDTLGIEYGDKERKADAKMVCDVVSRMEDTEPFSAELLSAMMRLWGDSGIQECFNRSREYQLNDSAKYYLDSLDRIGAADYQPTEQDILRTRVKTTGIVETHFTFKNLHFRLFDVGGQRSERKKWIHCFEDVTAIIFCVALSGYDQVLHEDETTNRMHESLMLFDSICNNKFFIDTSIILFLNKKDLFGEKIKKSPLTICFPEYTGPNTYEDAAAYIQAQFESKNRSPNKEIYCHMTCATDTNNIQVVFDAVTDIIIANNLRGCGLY

Target: Guanine nucleotide-binding protein G(o) subunit alpha (Homo sapiens) (UniProt P09471)
Experiment: RGS7-Galphao binding modulators, primary screen, biochemical, multiplexed bead flow cytometry (AID 1439);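 note: fluorescent Galphao held in activated GDP-AlF4 state binding bead-coupled RGS7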
Conditions: at 10 µM, actives lie on both sides

Compound | binding response (% of control)
Cc1ccccc1C(=O)Oc1cc(N)n(S(=O)(=O)c2ccccc2)n1 | inactive: 96.3%
COc1ccc(N2C=C3C(=O)C(C)(OC(=O)CCc4ccccc4)C(=O)C=C3C=C2c2ccc(C#N)cc2)cc1 (stereo not drawn) | inconclusive: 89.3%
O=C(NCCCc1ccccc1)C1CCC(CNc2c(N3CCCCC3)c(=O)c2=O)CC1 (stereo not drawn) | inconclusive: 77.2%
CCCc1c(C(=O)NNc2cccc(Cl)c2)cnn1-c1ccccc1 | inconclusive: 185%
CC(=O)OCC(=O)Nc1ccc([N+](=O)[O-])cc1Cl | inactive: 106%
O=C(NCCC1=CCCCC1)C1CCC(CNc2c(N3CCCC3)c(=O)c2=O)CC1 (stereo not drawn) | inconclusive: 108%
CCOC(=O)c1cn(CC2CC2)c2cc(F)c(F)cc2c1=O | inactive: 148%
Cc1ccc(/C=C/c2ccc(=O)n(Cc3ccc(F)cc3)n2)cc1 | inconclusive: 117%
CCOC(=O)Cc1csc(NC(=O)NC2(C(F)(F)F)Oc3cc(Cl)c(Cl)cc3O2)n1 | inactive: 97.1%
COc1ccc(C2C(C(=O)NCc3ccco3)c3ccccc3C(=O)N2C)cc1 (stereo not drawn) | inactive: 96.5%
COc1ccc(/C=C2\SC(=S)N(CC(=O)N3CCN(C)CC3)C2=O)cc1 | inconclusive: 85.5%
Cc1nn2c(NCCN(C)C)c3c(nc2c1-c1ccccc1)CCCC3 | inconclusive: 77.2%
COc1ccc(C(=O)NC(CC(=O)O)c2cc([N+](=O)[O-])ccc2Cl)c(SC)c1 (stereo not drawn) | inactive: 102%
Cn1ncc2c(N3CCC(Cc4ccccc4)CC3)ncnc21 | inconclusive: 90.3%
C/C(=N/NC(=O)CSc1nc2ccccc2s1)c1ccncc1 | inconclusive: -27.3%
COc1ccc(C(=O)Nc2ccccc2C(=O)N/N=C/c2ccncc2)cc1OC | inconclusive: 92.2%
COc1ccc2nc3cccc(OC)c3nc2c1 | inconclusive: 95.8%
Cc1ccc(Nc2nc(N)c([N+](=O)[O-])c(NCc3ccccc3)n2)cc1 | inconclusive: 106%
Nc1cc(Cl)nnc1Cl | inconclusive: 30.2%
COC(C[C@H]1O[C@H]1[C@@H](O)[C@H](C)OCc1ccccc1)OC | inconclusive: 110%
S=C(NNC(=S)NC1CC2CCC1C2)NC1CC2C=CC1C2 (stereo not drawn) | inconclusive: 122%
CC(C)CCN1NC2(CCCC(C)C2)NC1=S (stereo not drawn) | inconclusive: 137%
COc1ccccc1C(C[N+](=O)[O-])c1c[nH]c2ccccc12 (stereo not drawn) | inconclusive: 118%
S=c1[nH]cc(-c2ccc(Cl)cc2)n1Cc1ccccc1 | inconclusive: -45.6%

Molecules above with two or more sulfur atoms (3):
Compound | binding response (% of control)
COc1ccc(/C=C2\SC(=S)N(CC(=O)N3CCN(C)CC3)C2=O)cc1 | inconclusive: 85.5%
C/C(=N/NC(=O)CSc1nc2ccccc2s1)c1ccncc1 | inconclusive: -27.3%
S=C(NNC(=S)NC1CC2CCC1C2)NC1CC2C=CC1C2 (stereo not drawn) | inconclusive: 122%

Following part

Compound | binding response (% of control)
Cc1cc(C)c2c(N)c(C(=O)NN)sc2n1 | inconclusive: 83.7%
CCC(C)NS(=O)(=O)c1ccc(OCC(=O)NCc2ccccn2)cc1 (stereo not drawn) | inactive: 110%
COc1ccc(NC(=O)CNC(=O)c2c(C)nn(C)c2Cl)cc1 | inconclusive: 109%
O=C(CSc1nnc2ccccn12)NNC(=O)c1ccc(F)cc1 | inconclusive: 124%
O=c1c(Cl)c(NCc2ccccc2Cl)cnn1C12CC3CC(CC(C3)C1)C2 | inactive: 91.1%
COC(=O)c1c(C)oc(C)c1S(=O)(=O)NCc1ccco1 | inconclusive: 101%
COc1cc(C(=O)Nc2ccc(S(=O)(=O)NC(C)C)cc2)cc(OC)c1OC | inactive: 98.2%
COc1ccc(CCN2C(=O)NC(NS(=O)(=O)c3ccc(NC(C)=O)cc3)(C(F)(F)F)C2=O)cc1OC (stereo not drawn) | inconclusive: 136%
O=C(CCn1nnc2ccccc21)NNC(=O)C1CCCCC1 | inactive: 90.7%
O=C(CN1CCN(c2ccccc2O)CC1)NC(c1ccccc1)c1ccccc1 | inactive: 114%
CCS(=O)(=O)c1ccc2oc(Nc3ccc(C(C)(C)C)cc3)nc2c1 | inconclusive: 93.6%
COc1ccc(/C=C2\Oc3cc(OC(=O)N4CCOCC4)ccc3C2=O)cc1 | inconclusive: 37.1%
O=C(O)CCC(NC(=S)Nc1ccccc1)C(=O)O (stereo not drawn) | inconclusive: 108%
O=C(Oc1ccccc1N1CCOCC1)c1ccccc1 | inconclusive: 106%
COc1ccc(Cl)cc1NC(=O)C1(c2cccs2)CCOCC1 | inconclusive: 114%
COc1ccc(OC)c(CN2CCN(S(=O)(=O)c3ccc(NC(C)=O)cc3)CC2)c1 | inconclusive: 108%
COc1ccccc1-c1csc(NC(=O)c2ccc(N3C(=O)CCC3=O)cc2)n1 | inactive: 101%
CN(CC1CCOCC1)C(=O)CC1C(=O)NCCN1Cc1ccc(Cl)c(F)c1 (stereo not drawn) | inconclusive: -14.6%
CSc1nnc(C)c(/C=C/NOCc2ccc(Cl)cc2)n1 | inconclusive: 93.3%
Cc1ccc(CN2CCNC(=O)C2CC(=O)N2CCN(c3ncccn3)CC2)o1 (stereo not drawn) | inconclusive: 95.6%
COC(=O)c1ccc(S(=O)(=O)N2CCN(CCO)CC2)n1C | inconclusive: 84.3%
CC(C)C(=O)NCCc1nc2ccccc2n1CCc1ccccc1 | inconclusive: 94.5%
O=C(NCc1ccccc1)c1cc[n+](Cc2ccccc2)cc1 | inconclusive: 107%
Fc1ccc2nc(N3CCCC3)sc2c1 | inconclusive: 124%

Compound | binding response (% of control)
Cc1cc(C)cc(OCC(=O)OCC(=O)Nc2ccc(Cl)cn2)c1 | inactive: 105%
COC(=O)c1ccc(Cn2nnc3ccccc32)cc1 | inconclusive: 133%
COC(=O)c1ccc(NC(=O)CO/N=C2\CCCc3nonc32)cc1 | inactive: 98.3%
CC(=O)c1cccc(NC(=O)[C@@H](NC(N)=O)C(C)C)c1 | inconclusive: 99.4%
NS(=O)(=O)c1ccc(CNC(=O)Cc2ccccc2F)cc1 | inconclusive: 109%
Cc1nc(Cl)c2c(n1)NC(=O)CO2 | inconclusive: 61.9%
COC(C[C@H]1O[C@H]1C(=O)COCc1ccccc1)OC | inconclusive: 91.6%
COc1ccccc1/C=C/C1(C(=O)NC2CCCC2)CC(=O)N1c1ccccc1 (stereo not drawn) | inconclusive: 95.8%
Cc1csc(NC(=O)CSc2nnc(C)c(=O)n2N)n1 | inconclusive: 94.6%
CCCSC1=C(C#N)C(c2cccs2)CC(=O)N1 (stereo not drawn) | inconclusive: 96.8%
COc1ccc(CCC(=O)NCc2cn3ccccc3n2)cc1 | inconclusive: 111%
O=C(NCc1cccnc1)Nc1cccc(F)c1 | inconclusive: 126%
CC(=O)NCCNC(=O)c1ccc(-n2c(C)ccc2C)cc1 | inconclusive: 96.9%
Cn1ncc(Br)c1NC(=O)CSc1ccc(Cl)cc1 | inconclusive: 114%
Cc1cc(S(=O)(=O)NCc2ccccc2)ccc1OCC(=O)N1CCOCC1 | inconclusive: 122%
CS(=O)(=O)N(CC(=O)NCc1ccco1)c1cccc([N+](=O)[O-])c1 | inconclusive: 106%
CCOc1ccc(OCc2ccc(C(=O)N(CC)CC)cc2)cc1 | inconclusive: 102%
Cc1nn(-c2ccccc2)nc1C(=O)NNC(=O)c1ccc(C(F)(F)F)cc1 | inconclusive: 16%
COc1ccccc1-c1cn[nH]c1-c1ccc(OCc2ccccc2F)cc1O | inconclusive: -12.8%
COC(=O)c1ccc(/C=N/Nc2nc3ccccc3[nH]2)cc1 | inconclusive: 92.2%
Cc1c2c(nc3ccccc13)CCC(C)C2 (stereo not drawn) | inconclusive: 96.1%
CCOC(=O)c1cc(C#N)c(Nc2ccccc2OC)nc1C(F)(F)F | inconclusive: 117%
O=C(CSc1nc(Cc2ccccc2)nc2ccccc12)c1ccc2c(c1)OCCO2 | inactive: 102%
Cc1cc(C)nc(SCc2cn3ccccc3n2)n1 | inconclusive: 1.11%

Compound | binding response (% of control)
CN(C)c1ccc(CN(C(=O)/C=C/c2ccccc2Cl)C2CCS(=O)(=O)C2)cc1 (stereo not drawn) | inconclusive: 110%
OCCN1CNC(=S)NC1 | inconclusive: 99.4%
CC(C)n1ncc2c(C(=O)O)cc(C3CC3)nc21 | inconclusive: 74.1%
Cc1c(-c2ccc(Br)cc2)[n+](=O)c2c(n1[O-])CCCC2 | inconclusive: 112%
COc1ccc(NC(=O)c2ccccc2SC)c(OC)c1 | inconclusive: 89.3%
CC1CCN(C(=O)c2cccc(S(=O)(=O)N3CCCCC3)c2)CC1 | inactive: 102%
Cc1ccc(S(=O)(=O)N2CCOCC2)cc1NC(=O)COC(=O)c1cccnc1Cl | inconclusive: 107%
CCOC(=O)C1CCCN(C(=O)/C=C/c2cc(OC)c(OC)c(OC)c2)C1 (stereo not drawn) | active: 170% [activator]
CCCCCCCN1C=CC(=O)CC1 | inconclusive: 117%
COC(=O)c1cc(NC(=O)CSC2=NCCS2)cc(C(=O)OC)c1 | inactive: 88.2%
O=C(O)CCCNC(=O)c1cncc(O)c1 | inactive: 97.5%
CCOc1cccc(C(=O)NC(c2ccccc2)C(C)C)c1 (stereo not drawn) | inconclusive: 127%
Cc1cc(C2=NNC(=Nc3ccc(S(=O)(=O)N4CCOCC4)cc3)SC2)c(C)n1CC1CCCO1 (stereo not drawn) | inactive: 104%
COc1ccc(CNC(=O)CN(Cc2ccc(F)cc2)C(=O)c2csnn2)cc1 | inconclusive: 107%
Cc1cc(C)n(C(=O)CCCCCCCC(=O)n2nc(C)cc2C)n1 | inactive: 98.9%
COc1ccc(-c2cc(C(=O)NCCc3ccc(S(N)(=O)=O)cc3)c3ccccc3n2)cc1 | inconclusive: 93.4%
CSc1sc(C(=O)Nc2ccc(F)cc2F)c2c1C=CCC2 | inconclusive: 85.1%
CC1CN(C(=O)Nc2cccc(Cl)c2)C2(CCCCCC2)O1 (stereo not drawn) | inconclusive: 89.2%
COc1cc(/C=N/n2cnn(Cc3ccccc3Cl)c2=S)cc(OC)c1OC | inconclusive: 110%
O=C1CCC2(CC1)NC(=O)N(c1ccccc1)N2 | inactive: 103%
COc1ccc(NC(=O)CN(C)CC(=O)Nc2cccc(S(=O)(=O)N(C)c3ccccc3)c2)cc1 | inconclusive: 103%

Taken from above.
For binding response (% of control), CC1CN(C(=O)Nc2cccc(Cl)c2)C2(CCCCCC2)O1 (stereo not drawn) is listed with inconclusive: 89.2%
For binding response (% of control), Cc1cc(C)n(C(=O)CCCCCCCC(=O)n2nc(C)cc2C)n1 is listed with inactive: 98.9%
For binding response (% of control), O=C1CCC2(CC1)NC(=O)N(c1ccccc1)N2 is listed with inactive: 103%
